Construct, isoform or probe ends are uncertain for at least one entry. A weaker result is weaker than the reference pair of the same experiment. At least one verdict was read from the data and is not stated in words by the source.
Assays:
[1] = target: TOP2A(431-1193) (Homo sapiens) (UniProt P11388); experiment: fluorescence polarization; settings: 3 mM Mg2+, FP: 20 mM HEPES-NaOH pH 7.4, 2 mM DTT, 3 mM MgCl2, 0.05% NP-40, protease inhibitors, room temperature 20 min, recombinant protein, residues 431-1193, protein details: N-terminal 6xHis (pET28a), label: 3' 6-FAM (Results text says NT474 dye)
[2] = target: TOP2A full-length (Homo sapiens) (UniProt P11388); experiment: EMSA; settings: recombinant protein
[3] = target: TOP2A(431-1193) (Homo sapiens) (UniProt P11388); experiment: EMSA; settings: recombinant protein, residues 431-1193, protein details: N-terminal 6xHis (pET28a)
[4] = target: TOP2B full-length (Homo sapiens) (UniProt Q02880); experiment: EMSA; settings: recombinant protein
[5] = no inhibitor, 300 nM protein, 100 nM DNA

Protein sequences, listed by entry. Tags and fused reporters are not part of them. Lines headed by an entry give the natural chain unless they say otherwise; changes in a name come on top. Residues count along the entry.
UniProt P11388, 431-1193: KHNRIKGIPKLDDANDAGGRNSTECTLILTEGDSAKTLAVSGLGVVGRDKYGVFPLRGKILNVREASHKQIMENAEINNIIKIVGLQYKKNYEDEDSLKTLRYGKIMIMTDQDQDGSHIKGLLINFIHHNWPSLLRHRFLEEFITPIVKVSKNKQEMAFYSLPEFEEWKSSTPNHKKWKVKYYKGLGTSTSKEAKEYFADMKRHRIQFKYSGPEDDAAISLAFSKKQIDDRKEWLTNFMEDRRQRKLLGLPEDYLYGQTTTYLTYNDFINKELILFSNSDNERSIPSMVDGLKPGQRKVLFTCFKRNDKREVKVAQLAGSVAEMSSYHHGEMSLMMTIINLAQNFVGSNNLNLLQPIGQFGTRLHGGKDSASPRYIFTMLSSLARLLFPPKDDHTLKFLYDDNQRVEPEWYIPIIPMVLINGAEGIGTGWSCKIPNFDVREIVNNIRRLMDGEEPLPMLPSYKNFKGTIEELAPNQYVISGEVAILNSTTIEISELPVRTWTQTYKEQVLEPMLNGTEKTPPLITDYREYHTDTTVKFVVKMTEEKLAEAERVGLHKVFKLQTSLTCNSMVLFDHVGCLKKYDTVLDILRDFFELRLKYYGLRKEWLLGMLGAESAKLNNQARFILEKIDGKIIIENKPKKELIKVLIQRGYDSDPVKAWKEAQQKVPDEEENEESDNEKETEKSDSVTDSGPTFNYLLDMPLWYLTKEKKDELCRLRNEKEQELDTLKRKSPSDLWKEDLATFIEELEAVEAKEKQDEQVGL
UniProt Q02880: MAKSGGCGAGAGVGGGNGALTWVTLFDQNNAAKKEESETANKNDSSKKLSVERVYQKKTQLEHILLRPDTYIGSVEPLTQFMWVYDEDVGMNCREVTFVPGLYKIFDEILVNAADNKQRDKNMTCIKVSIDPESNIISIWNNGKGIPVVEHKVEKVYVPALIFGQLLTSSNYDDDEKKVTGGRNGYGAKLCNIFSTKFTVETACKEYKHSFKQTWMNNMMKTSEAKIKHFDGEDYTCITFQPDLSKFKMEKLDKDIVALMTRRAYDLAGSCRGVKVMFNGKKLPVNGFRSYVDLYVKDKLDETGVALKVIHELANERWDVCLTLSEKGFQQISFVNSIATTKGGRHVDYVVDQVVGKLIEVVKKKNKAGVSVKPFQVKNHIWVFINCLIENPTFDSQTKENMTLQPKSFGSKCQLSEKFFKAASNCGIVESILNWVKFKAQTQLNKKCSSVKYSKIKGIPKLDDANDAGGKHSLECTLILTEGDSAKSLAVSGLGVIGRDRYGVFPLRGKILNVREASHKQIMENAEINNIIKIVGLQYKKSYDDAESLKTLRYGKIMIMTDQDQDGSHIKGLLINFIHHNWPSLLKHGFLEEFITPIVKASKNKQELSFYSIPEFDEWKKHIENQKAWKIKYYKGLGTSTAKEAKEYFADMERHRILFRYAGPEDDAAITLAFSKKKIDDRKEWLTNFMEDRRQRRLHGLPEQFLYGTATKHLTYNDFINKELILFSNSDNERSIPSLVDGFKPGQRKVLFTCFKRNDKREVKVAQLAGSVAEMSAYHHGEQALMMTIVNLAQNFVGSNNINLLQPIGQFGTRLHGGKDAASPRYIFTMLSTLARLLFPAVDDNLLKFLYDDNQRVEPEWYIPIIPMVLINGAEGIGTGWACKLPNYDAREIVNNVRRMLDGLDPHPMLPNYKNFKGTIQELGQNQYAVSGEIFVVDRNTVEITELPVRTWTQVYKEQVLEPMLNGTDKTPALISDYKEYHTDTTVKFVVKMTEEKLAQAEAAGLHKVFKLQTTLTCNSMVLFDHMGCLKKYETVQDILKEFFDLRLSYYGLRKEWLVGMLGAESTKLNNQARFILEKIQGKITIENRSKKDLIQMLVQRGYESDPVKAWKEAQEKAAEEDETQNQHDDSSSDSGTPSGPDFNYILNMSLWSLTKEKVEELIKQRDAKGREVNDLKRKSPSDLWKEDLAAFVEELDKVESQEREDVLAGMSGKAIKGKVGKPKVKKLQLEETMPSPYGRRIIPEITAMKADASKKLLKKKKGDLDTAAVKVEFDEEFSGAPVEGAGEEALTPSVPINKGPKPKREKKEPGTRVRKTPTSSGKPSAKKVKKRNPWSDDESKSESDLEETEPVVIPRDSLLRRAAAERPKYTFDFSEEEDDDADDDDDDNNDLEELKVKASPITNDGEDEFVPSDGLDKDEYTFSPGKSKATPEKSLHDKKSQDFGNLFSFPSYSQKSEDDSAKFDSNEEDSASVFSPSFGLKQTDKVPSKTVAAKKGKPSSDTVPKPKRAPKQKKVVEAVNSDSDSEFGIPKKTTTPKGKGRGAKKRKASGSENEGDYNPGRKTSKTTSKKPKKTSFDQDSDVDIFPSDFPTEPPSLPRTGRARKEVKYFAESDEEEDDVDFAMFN

Row | Sequence | binding result ([1]; T60 0.01-200 uM, dose-dependent) | binding result ([1]; T637 0.01-200 uM, dose-dependent) | binding result ([1]; T638 0.01-200 uM, dose-dependent) | binding result ([1]; no inhibitor, 500 nM protein, 1 nM or 2 nM (Methods) DNA) | binding result ([2]; 200 uM T60) | binding result ([2]; 200 uM T637) | binding result ([2]; 200 uM T638) | binding result [2, 5] | binding result ([3]; T60, dose-dependent) | binding result ([3]; T637, dose-dependent) | binding result ([3]; T638, dose-dependent, strongest effect) | binding result ([3]; no inhibitor, 2 uM protein, 300 nM DNA) | binding result ([4]; 200 uM T60) | binding result ([4]; 200 uM T637) | binding result ([4]; 200 uM T638) | binding result [4, 5]
1 | AGCCGAGCTGCAGCTCGGCT (double strand) [5ZRF DNA oligo (FAM)] | binds more weakly | binds more weakly | binds more weakly | binds | – | – | – | – | – | – | – | – | – | – | – | –
2 | AGCCGAGCTGCAGCTCGGCT (double strand) [5ZRF DNA oligo (IRDye700)] | – | – | – | – | binds more weakly | binds more weakly | binds more weakly | binds | binds more weakly | binds more weakly | binds more weakly | binds | binds more weakly | binds more weakly | binds more weakly | binds

Source: article PMC8345109, “Optimization of New Catalytic Topoisomerase II Inhibitors as an Anti-Cancer Therapy” (Cancers, 2021)
